In patent publication US20120322150A1, “Mechanism and Method for Regulating Glycogen Synthase Kinase 3 (GSK3)-Related Kinases” (CARNEGIE INSTITUTION OF WASHINGTON, priority 2009, published 2012):
Changes are numbered by the printed parent chain. Results are given in words; binding and its absence hold for the method and conditions named. For part of these data: In cells and extracts the contact can be indirect. Some entries that bind do so weakly or less than the wild type. For part of these data: Sequences can lack the tags named with a protein.

Sequences of proteins named here, by UniProt entry; tags and fusion partners are left off. A change or cut given only in a name is not applied to a line headed by its entry. Residues count along the entry.
UniProt Q944A7, residues 2-512: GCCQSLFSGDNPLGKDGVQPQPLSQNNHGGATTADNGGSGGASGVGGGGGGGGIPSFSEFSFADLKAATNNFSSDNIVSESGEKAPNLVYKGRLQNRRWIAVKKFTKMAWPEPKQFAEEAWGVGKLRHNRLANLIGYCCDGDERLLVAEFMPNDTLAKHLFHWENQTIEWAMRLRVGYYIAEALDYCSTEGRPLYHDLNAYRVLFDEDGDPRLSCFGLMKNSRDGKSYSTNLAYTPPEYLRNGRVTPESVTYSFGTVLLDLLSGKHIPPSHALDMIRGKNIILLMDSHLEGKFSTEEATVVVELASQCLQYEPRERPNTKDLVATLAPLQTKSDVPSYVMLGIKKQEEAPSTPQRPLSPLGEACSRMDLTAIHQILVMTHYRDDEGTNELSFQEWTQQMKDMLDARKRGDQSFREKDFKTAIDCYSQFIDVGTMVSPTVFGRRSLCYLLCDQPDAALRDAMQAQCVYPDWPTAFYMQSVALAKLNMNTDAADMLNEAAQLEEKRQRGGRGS
UniProt Q9LR78: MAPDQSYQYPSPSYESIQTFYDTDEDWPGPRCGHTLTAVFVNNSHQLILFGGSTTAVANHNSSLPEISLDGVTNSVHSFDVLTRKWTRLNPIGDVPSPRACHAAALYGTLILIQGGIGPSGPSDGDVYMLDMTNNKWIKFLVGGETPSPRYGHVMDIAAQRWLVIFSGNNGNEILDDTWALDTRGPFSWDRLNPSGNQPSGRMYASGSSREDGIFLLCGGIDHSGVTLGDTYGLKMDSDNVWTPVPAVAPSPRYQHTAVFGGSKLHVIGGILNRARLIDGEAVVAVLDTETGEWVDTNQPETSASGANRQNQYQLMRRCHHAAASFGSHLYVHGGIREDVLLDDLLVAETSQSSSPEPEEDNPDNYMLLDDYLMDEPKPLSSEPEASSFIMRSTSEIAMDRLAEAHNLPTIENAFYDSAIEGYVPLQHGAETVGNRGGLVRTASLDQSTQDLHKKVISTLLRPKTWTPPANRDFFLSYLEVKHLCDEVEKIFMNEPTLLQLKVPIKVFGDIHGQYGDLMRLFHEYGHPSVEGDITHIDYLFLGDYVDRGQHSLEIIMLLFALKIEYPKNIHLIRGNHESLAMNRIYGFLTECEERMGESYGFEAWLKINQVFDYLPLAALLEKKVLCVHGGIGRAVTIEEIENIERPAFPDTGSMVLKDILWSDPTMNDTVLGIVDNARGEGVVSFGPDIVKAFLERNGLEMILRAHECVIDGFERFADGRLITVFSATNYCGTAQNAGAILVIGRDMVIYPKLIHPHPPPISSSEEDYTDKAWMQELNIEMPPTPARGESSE

Tests used:
[1] = biological target: T1, bin2-1 fused N-terminal half (nYFP) of yellow fluorescence protein (Arabidopsis) (UniProt Q39011); experiment: BiFC
T1 sequence (looked up): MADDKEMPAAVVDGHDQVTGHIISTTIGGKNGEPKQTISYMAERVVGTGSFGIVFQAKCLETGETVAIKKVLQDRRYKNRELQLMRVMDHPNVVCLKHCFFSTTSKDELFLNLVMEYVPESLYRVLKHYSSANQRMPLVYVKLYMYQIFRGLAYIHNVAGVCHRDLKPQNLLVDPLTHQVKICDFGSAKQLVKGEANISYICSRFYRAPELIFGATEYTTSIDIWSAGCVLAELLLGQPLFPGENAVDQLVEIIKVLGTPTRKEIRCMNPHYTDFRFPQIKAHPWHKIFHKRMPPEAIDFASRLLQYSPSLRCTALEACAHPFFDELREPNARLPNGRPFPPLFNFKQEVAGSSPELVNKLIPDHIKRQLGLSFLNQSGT

[2] = biological target: T1, bin2-1 fused N-terminal half (nYFP) of yellow fluorescence protein (Arabidopsis); experiment: BiFC (FIG. 14)
BIN2-YFP (Arabidopsis) [3] = biological target: T2, BIN2-YFP (Arabidopsis) (UniProt Q39011); experiment: co-immunoprecipitation from tobacco cells
T2 sequence (looked up): T1 sequence (looked up) with K263E

BIN2-YFP (Arabidopsis) [4] = biological target: T2, BIN2-YFP (Arabidopsis); experiment: co-immunoprecipitation from tobacco leaves with anti-GFP antibody, blot with anti-myc
BSK1-myc (Arabidopsis) [5] = biological target: BSK1-myc (Arabidopsis) (UniProt Q944A7); experiment: co-immunoprecipitation from Arabidopsis
BIN2-myc (Arabidopsis) [6] = biological target: T3, BIN2-myc (Arabidopsis) (UniProt Q39011); experiment: pull-down with BIN2-myc on anti-myc beads from plant extract
T3 sequence (looked up): T1 sequence (looked up) with K263E

BIN2-myc (Arabidopsis) [7] = biological target: T3, BIN2-myc (Arabidopsis); experiment: co-immunoprecipitation from Arabidopsis, with or without brassinolide
BSK1-myc (Arabidopsis) [8] = biological target: BSK1-myc (Arabidopsis) (UniProt Q944A7); experiment: co-immunoprecipitation from Arabidopsis with anti-myc, blot with anti-GFP
bin2-1-myc (Arabidopsis) [9] = biological target: T4, bin2-1-myc (Arabidopsis) (UniProt Q39011); experiment: pull-down with myc-tagged bin2-1 on anti-myc beads from BSU1-YFP plant extract (FIG. 13)
T4 sequence (looked up): T1 sequence (looked up)

BIN2-myc (Arabidopsis) [10] = biological target: T3, BIN2-myc (Arabidopsis); experiment: pull-down: myc-tagged protein on anti-myc beads incubated with extracts of BSU1-YFP plants
bin2-1-myc (Arabidopsis) [11] = biological target: T4, bin2-1-myc (Arabidopsis); experiment: as above
BIN2-myc (Arabidopsis) [12] = biological target: T3, BIN2-myc (Arabidopsis); experiment: co-immunoprecipitation from Arabidopsis with anti-myc antibodies, blot with anti-GFP; with or without brassinolide

Measured: binding

BSU1 fused to C-terminal half (cYFP) of YFP (from UniProt Q9LR78 1-793) (enzyme)
binds: [1] | [2]

BSU1-myc (from UniProt Q9LR78 1-793) (enzyme)
binds: BIN2-YFP (Arabidopsis) [3] | BIN2-YFP (Arabidopsis) [4]

BSU1-YFP (from UniProt Q9LR78 1-793) (enzyme)
not listed: [1] | [2] | BIN2-YFP (Arabidopsis) [3] | BIN2-YFP (Arabidopsis) [4]
binds: all other assays above
